In PubChem BioAssay AID1347426 (Functional Genomics Laboratory (NCATS/FGL), 2020) one finds median seed-adjusted z-score data, which are given here for 68 sequences.

Screen size: about 31,000 sequences; about 1,400 (4.5%) were called active.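 Rule for the calls: active = median seed-adjusted z-score above 1 or below -1; inactive = the rest.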 This is one part of the list.

The test is described as follows: Novel Modifiers of Survival Motor Neuron (SMN) Protein: Gene Identification via Genome-wide siRNA Screen.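 Note: luminescence tracks full-length SMN protein made from the SMN2 reporter.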 To be noted: HEK293T SMN2-luciferase reporter, siRNA knockdown, 72 h; actives lie on both sides. An outline of the steps:
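HEK293T cells stably expressing an SMN2 splicing/cDNA-luciferase reporter were reverse-transfected with a druggable-genome siRNA library and read by luminescence at 72 hours; hits defined by MAD score above 1.0 or below -1.0.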
(In general: In a reporter assay the amount or activity of a reporter protein is the signal.)
CAAGCAGUGAGAACAAUAATT against ITGAD: the median seed-adjusted z-score is inactive: 0.188.

Turning to AGACCGACGUGAAAGAGGATT against HAND2, the median seed-adjusted z-score is inactive: 0.0864.

Take CCACCAUCCUGAUCCUCUUTT against GPR45: the median seed-adjusted z-score is inactive: 0.0287.

Take CCAUCGCAGAGGGAGAUAATT against USP43: the median seed-adjusted z-score was inactive: 0.

With CAAGGAGCAAGGUUCGGAATT against KIRREL3, the median seed-adjusted z-score is inactive: -0.206.

With GAAGAACAUAGGUAAAUUUTT against PBX1, the median seed-adjusted z-score was inactive: -0.199.

Turning to GGACCUGCCUAAUUACCUUTT against LPCAT1, the median seed-adjusted z-score was inactive: -0.995.

On to GGCCUUUCUUUAUGCACUUTT against SGMS1, for which the median seed-adjusted z-score is inactive: -0.287.

Take CGGAAGGUAGUAAACCUUUTT against AMY1A: the median seed-adjusted z-score was inactive: 0.272.

Turning to GCUCGUAAACUAGCUAAUATT against RCOR3, the median seed-adjusted z-score was inactive: 0.0446.

For GUACCAAUACUGAUAAGAATT against SLC9A11, the median seed-adjusted z-score is inactive: -0.12.

AGUGCGCCCAGAAUCUAAATT against ZNF689: the median seed-adjusted z-score is inactive: 0.448.

For the sequence GCCUCCUGUUUUGACCUAATT against THAP2, the median seed-adjusted z-score is inactive: -0.273.

GCCUUUCAUCAGAUCUUCUTT against DBX1: the median seed-adjusted z-score was inactive: 0.0137.

As to GAGUUAUGGUGAACCCACATT against CDKN2B, the median seed-adjusted z-score was inactive: 0.0154.

CAUAGAUUCUGUACGGCAATT against MPP5: the median seed-adjusted z-score was inactive: 0.429.

As for GCACUGUCUUUUUCGAUGATT against VNN1, the median seed-adjusted z-score is inactive: 0.549.

CUAUGGAUCUAAUCGCAAATT against CS: the median seed-adjusted z-score was inactive: -0.419.

Turning to CGGCAGUUGUAGCAGUAGATT against GMEB1, the median seed-adjusted z-score was inactive: 0.198.

Take CGUCUUCCUUGUGCGCCUATT against COL20A1: the median seed-adjusted z-score was inactive: -0.0033.

On to GUAGCAAUGUGGACAAGAUTT against NFIL3, for which the median seed-adjusted z-score is inactive: 0.4.

CGACAAGAUCAUCUACUCATT against GNA11: the median seed-adjusted z-score is inactive: -0.11.

Regarding CCGCUUCUAUAAGCUCUAUTT against USP11, the median seed-adjusted z-score was inactive: -0.0327.

With CCAUCGUCAUGGAUCCAGATT against KDR, the median seed-adjusted z-score was inactive: 0.0728.

CCUUCUUCAUGAUUCAGAATT against SLC39A8: the median seed-adjusted z-score was inactive: 0.265.

As for UGAACUUCGUGGUAAAGGATT against LZTR1, the median seed-adjusted z-score was inactive: 0.293.

On to CAACGAUUGUGCACCUGAATT against PCDHGB2, for which the median seed-adjusted z-score is inactive: -0.429.

CGUCCAUACUUACCUAAUUTT against UGT2A1: the median seed-adjusted z-score is inactive: 0.213.

Turning to CACUAUGGAGAAACAAUAUTT against ZNF181, the median seed-adjusted z-score is inactive: -0.154.

As for CAUCGAGACUUACCAGGUUTT against PPP2R2B, the median seed-adjusted z-score was inactive: -0.252.

In the case of CGACAUCACCCAUUAUCCATT against NFIA, the median seed-adjusted z-score is inactive: -0.268.

With GUAUCACUCUUAGAAUCCATT against GP1BA, the median seed-adjusted z-score is inactive: 0.0803.

GGCUUAACAUUGAACGAAUTT against CRY2: the median seed-adjusted z-score is inactive: 0.0209.

On to AAACAAUAAGAUCACUGUATT against LDHB, for which the median seed-adjusted z-score is inactive: -0.515.

As for GCACUACGAGGACCAAGUUTT against RHBG, the median seed-adjusted z-score was inactive: -0.126.

With GGAGUGUCUGAAUCAGAGATT against HSPH1, the median seed-adjusted z-score was inactive: -0.314.

As for GCAAUGGGCUUAGUAUUCUTT against TGFBR1, the median seed-adjusted z-score is inactive: 0.226.

In the case of GAAAUACCUGGAUCAGUUUTT against ATP2C2, the median seed-adjusted z-score is inactive: -0.302.

Regarding GCAAUGUACUGGUGCGGAATT against ADCK1, the median seed-adjusted z-score was inactive: -0.177.

As for CCAACGACGUGGUGCAGAATT against CLDN14, the median seed-adjusted z-score was inactive: -0.456.

Take UCGUCUUCUUGAUUCGAAATT against TAF13: the median seed-adjusted z-score was inactive: -0.919.

In the case of GAGCUUUUGUUACAACUUATT against KLF6, the median seed-adjusted z-score is inactive: -0.0398.

As for CCGCGACUCUGAUGAGAAATT against PTK6, the median seed-adjusted z-score is inactive: -0.295.

With GCAACUACCUCCAAACUCATT against HTR3B, the median seed-adjusted z-score was inactive: 0.153.

On to CAGUGGAAAUAAUUACGUUTT against MDH1B, for which the median seed-adjusted z-score is active: -1.13.

Turning to CAUCCAAAGUUAUCGAAAATT against APCS, the median seed-adjusted z-score is inactive: 0.0494.

Regarding ACAUCGCCUACUUCCCACATT against ISOC2, the median seed-adjusted z-score was inactive: -0.599.

As to UCACCCUAUUACUUCCUGATT against APH1A, the median seed-adjusted z-score was inactive: 0.741.

On to GCUUUAGCCGGAAAGACAATT against ZFP64, for which the median seed-adjusted z-score is inactive: -0.659.

For CCUUCACGAAGGAGACAUATT against TJP2, the median seed-adjusted z-score was inactive: 0.0668.

Take GCAAGGAUUCAGAACCGGATT against RNF133: the median seed-adjusted z-score was inactive: 0.

On to CGCUUACAGAGUCACCAAATT against COL5A1, for which the median seed-adjusted z-score was inactive: -0.00475.

Consider GAUCCUGACUUGAUAGAGATT against UBA6, for which the median seed-adjusted z-score was inactive: 0.0251.

Turning to “CCAUUACACCAGCUAUACUTT against DKFZP586H2123”, the median seed-adjusted z-score is inactive: -0.38.

Regarding GGACUGCAUGUACAAGGAUTT against ELL, the median seed-adjusted z-score is inactive: -0.497.

Regarding CGCACUAAUUAUCAAGCUUTT against RFC1, the median seed-adjusted z-score is inactive: 0.

For GGACGAUACCCAGAUUAUATT against CTCF, the median seed-adjusted z-score is inactive: -0.0821.

Turning to GCACUUCAGACCUCAGUAATT against ZNF71, the median seed-adjusted z-score is inactive: -0.0193.

Consider GCAGGUAAAGUUAACAAAUTT against PROZ, for which the median seed-adjusted z-score is inactive: -0.422.

On to GGGACAUGGGAAUGCAAUATT against MSR1, for which the median seed-adjusted z-score is inactive: 0.0743.

As to CCACCAUCCAUGGUCAAGATT against SLC22A12, the median seed-adjusted z-score is inactive: -0.148.

With GCGAGGAAGUACAACCGCATT against ACCN4, the median seed-adjusted z-score was inactive: -0.512.

For CAUGUUCAAAGUACACUGATT against CTSS, the median seed-adjusted z-score was inactive: 0.123.

Turning to UCAGGUCUCCAACACCUAUTT against TPD52L3, the median seed-adjusted z-score is inactive: 0.552.

As to GUGGGAAAGUCUAUGGAAATT against KLF9, the median seed-adjusted z-score was inactive: 0.767.

With GCAUUGGUGUAUGGAAUUATT against SLC6A15, the median seed-adjusted z-score was inactive: 0.0939.

As to CGAUUUCGACAGAUCCUAATT against ATP6V1D, the median seed-adjusted z-score is inactive: 0.594.

As to GGAUCAUGCAAGACUUUGATT against DHFR, the median seed-adjusted z-score is inactive: -0.952.
